PubChem BioAssay AID1508597, Cure First, 2020
The deposit covers about 2,100 reagents; this is a random part of them. 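Calls flag viability under 80% in either arm, not effects specific to rucaparib; the reference for percent is not stated.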 Not stated in the record: the 100% reference.

Assay: 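Genes whose silencing sensitises or protects ovarian cancer cells against rucaparib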 (primary screen)
Cells: human ovarian carcinoma lines grown from tumours: OCI-P5x (papillary serous) and OCI-C5x (clear cell)
Reagent: siRNA pool against human genes, 1.25 pmol siRNA per well
Duration: 72 h or 96 h, depending on the cell culture
Treatment: rucaparib 20 µM (about IC30) or vehicle, present until read-out
Read-out: 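ATP luminescence measured at 72 or 96 h according to the culture, then normalised and expressed as percent viability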
Reading the numbers: viability, normalised: higher = more viable cells remaining
Rule for the call: 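a well counts as a hit if its normalised viability is under 80 percent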
Calls: active = viability under 80%; inactive = viability 80% or more

ARID4B (AT-rich interaction domain 4B), rucaparib or vehicle Rucaparib, cell line OCI-C5x (clear cell), technical replicate 1 gave viability, normalised (%) = 50.5; active.
ARID4B (AT-rich interaction domain 4B), rucaparib or vehicle Rucaparib, cell line OCI-C5x (clear cell), technical replicate 2 showed viability, normalised (%) = 57.9; active.
ARID4B (AT-rich interaction domain 4B), rucaparib or vehicle Rucaparib, cell line OCI-C5x (clear cell), technical replicate 3 showed viability, normalised (%) = 33.3; active.
ARID4B (AT-rich interaction domain 4B), rucaparib or vehicle Rucaparib, cell line OCI-P5x (serous), technical replicate 1 gave viability, normalised (%) = 87.8; inactive.
For ARID4B (AT-rich interaction domain 4B), rucaparib or vehicle Rucaparib, cell line OCI-P5x (serous), technical replicate 2, the entry reads viability, normalised (%) = 71; active.
ARID4B (AT-rich interaction domain 4B), rucaparib or vehicle Rucaparib, cell line OCI-P5x (serous), technical replicate 3 showed viability, normalised (%) = 71.4; active.
With ARID4B (AT-rich interaction domain 4B), rucaparib or vehicle Vehicle, cell line OCI-C5x (clear cell), technical replicate 1, the entry reads viability, normalised (%) = 41.8; active.
For ARID4B (AT-rich interaction domain 4B), rucaparib or vehicle Vehicle, cell line OCI-C5x (clear cell), technical replicate 2, the values are viability, normalised (%) = 38.9; active.
With ARID4B (AT-rich interaction domain 4B), rucaparib or vehicle Vehicle, cell line OCI-C5x (clear cell), technical replicate 3, the entry reads viability, normalised (%) = 39; active.
With ARID4B (AT-rich interaction domain 4B), rucaparib or vehicle Vehicle, cell line OCI-P5x (serous), technical replicate 1, the entry reads viability, normalised (%) = 78.2; active.
ARID4B (AT-rich interaction domain 4B), rucaparib or vehicle Vehicle, cell line OCI-P5x (serous), technical replicate 2 scored viability, normalised (%) = 92.2; inactive.
ARID4B (AT-rich interaction domain 4B), rucaparib or vehicle Vehicle, cell line OCI-P5x (serous), technical replicate 3 showed viability, normalised (%) = 77.6; active.
